Some of these results come from one statement about several compounds together.
Test system: 4T1 tumors
Assay: Immunofluorescence of tumor sections (cellular phenotype of tumor microenvironment)
Format: in vivo, BALB/c mice
Experimental: Tissues were quick frozen in OCT (Tissue-Tek) and stored at −80° C. Tissue sections (10 μm) were fixed with ice-cold acetone for 15 minutes at −20° C. and washed three times with IX PBS using trays followed by blocking with 5% fetal bovine serum in PBS. Fluorescence-labeled antibodies [e-flour 615 CD8 (clone 53-6.7; 1:50), e-flour 570 Ki-67 (clone solA15: 1:100; eBioscience, San Diego, Calif., USA); FITC F4/80 (MCA497A488; 1:100), Alexa Fluor 647 CD204 (MCA1322; 1:100, AbD Serotec, Raleigh N.C., USA); and 33D1 (1:100, BD Biosciences, San Jose. Calif.: 1:500 secondary anti-rat IgG Alexa Fluor® 546; Invitrogen) and iNOS (6/iNOS/NOS; 1:100 BD Biosciences, San Jose, Calif., USA; 1:500 anti-rabbit IgG-TRITC, Jackson Immunoresearch Labs, Inc. West Grove, Pa., USA)] were incubated with tissues overnight at 4° C. in the presence of 5% FBS. Slides were then washed three times with PBS and mounted with ProLong® Gold AntiFade with DAPI (Invitrogen). Images were taken using an A1 Nikon confocal microscope and the percent positive cells were determined by manual counting of four arbitrary regions in random samples.
Tissues were quick frozen in OCT (Tissue-Tek) and stored at −80° C. […] Images were obtained using a confocal microscope (A1 Nikon), and the percent-positive cells were determined by manual counting of four arbitrary regions in random samples.

B1: IL-12: Recombinant mouse IL-12 purchased from R&D Systems (protein, UniProt P43431 23-215; P43432 23-335, looked up)
Interleukin-12 subunit alpha: RVIPVSGPARCLSQSRNLLKTTDDMVKTAREKLKHYSCTAEDIDHEDITRDQTSTLKTCLPLELHKNESCLATRETSSTTRGSCLPPQKTSLMMTLCLGSIYEDLKMYQTEFQAINAALQNHNHQQIILDKGMLVAIDELMQSLNHNGETLRQKPPVGEADPYRVKMKLCILLHAFSTRVVTINRVMGYLSSA
Interleukin-12 subunit beta: MWELEKDVYVVEVDWTPDAPGETVNLTCDTPEEDDITWTSDQRHGVIGSGKTLTITVKEFLDAGQYTCHKGGETLSHSHLLLHKKENGIWSTEILKNFKNKTFLKCEAPNYSGRFTCSWLVQRNMDLKFNIKSSSSSPDSRAVTCGMASLSAEKVTLDQRDYEKYSVSCQEDVTCPTAEETLPIELALEARQQNKYENYSTSFFIRDIIKPDPPKNLQMKPLKNSQVEVSWEYPDSWSTPHSYFSLKFFVRIQRKKEKMKETEEGCNQKGAFLVEKTSTEVQCKGGNVCVQAQDRYYNSSCSKWACVPCRVRS
- cellular proliferation, Ki-67 expression (percent positive cells in tumor): 5-10%

Reference: US10881612B2, “Cationic liposomes for cancer immunotherapy” (The Methodist Hospital, priority 2015, dated 2021)
